Results published in article PMC11075218.
No constants are given. Whether binding was seen depends on the method and setting. In cells and extracts the contact can be indirect. Some binding calls cover weakened binding; strength is not graded here.

Amino acid sequences for entries named in this document (tags omitted).
UniProt P61088: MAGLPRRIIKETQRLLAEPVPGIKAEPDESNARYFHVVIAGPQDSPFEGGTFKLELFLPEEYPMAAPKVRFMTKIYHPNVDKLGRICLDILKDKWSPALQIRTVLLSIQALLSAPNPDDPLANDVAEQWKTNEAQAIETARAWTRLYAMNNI
UniProt O15169: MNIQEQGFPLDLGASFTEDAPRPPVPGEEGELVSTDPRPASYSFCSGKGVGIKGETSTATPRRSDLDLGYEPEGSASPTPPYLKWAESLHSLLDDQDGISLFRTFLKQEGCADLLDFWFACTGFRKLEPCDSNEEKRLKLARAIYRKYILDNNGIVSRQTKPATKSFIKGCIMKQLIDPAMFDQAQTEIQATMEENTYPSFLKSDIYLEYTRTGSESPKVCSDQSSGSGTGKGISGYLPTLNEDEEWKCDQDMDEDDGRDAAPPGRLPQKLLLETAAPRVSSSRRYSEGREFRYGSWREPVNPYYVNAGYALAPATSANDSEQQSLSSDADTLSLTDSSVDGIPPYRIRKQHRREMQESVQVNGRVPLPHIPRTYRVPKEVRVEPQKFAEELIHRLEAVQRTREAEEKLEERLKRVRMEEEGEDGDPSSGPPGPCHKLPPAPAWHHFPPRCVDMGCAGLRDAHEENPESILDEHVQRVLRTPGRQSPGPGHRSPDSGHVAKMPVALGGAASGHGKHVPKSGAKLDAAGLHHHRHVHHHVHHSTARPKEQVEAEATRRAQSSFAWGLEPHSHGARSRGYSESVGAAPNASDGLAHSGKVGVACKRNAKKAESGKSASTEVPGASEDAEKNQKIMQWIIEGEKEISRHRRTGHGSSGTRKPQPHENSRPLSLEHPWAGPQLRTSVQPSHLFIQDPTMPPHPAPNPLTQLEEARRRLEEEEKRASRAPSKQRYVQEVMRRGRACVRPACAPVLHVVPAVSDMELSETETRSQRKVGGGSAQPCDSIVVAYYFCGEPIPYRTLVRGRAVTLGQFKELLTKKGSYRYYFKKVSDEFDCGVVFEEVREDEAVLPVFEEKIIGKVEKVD
UniProt P49841: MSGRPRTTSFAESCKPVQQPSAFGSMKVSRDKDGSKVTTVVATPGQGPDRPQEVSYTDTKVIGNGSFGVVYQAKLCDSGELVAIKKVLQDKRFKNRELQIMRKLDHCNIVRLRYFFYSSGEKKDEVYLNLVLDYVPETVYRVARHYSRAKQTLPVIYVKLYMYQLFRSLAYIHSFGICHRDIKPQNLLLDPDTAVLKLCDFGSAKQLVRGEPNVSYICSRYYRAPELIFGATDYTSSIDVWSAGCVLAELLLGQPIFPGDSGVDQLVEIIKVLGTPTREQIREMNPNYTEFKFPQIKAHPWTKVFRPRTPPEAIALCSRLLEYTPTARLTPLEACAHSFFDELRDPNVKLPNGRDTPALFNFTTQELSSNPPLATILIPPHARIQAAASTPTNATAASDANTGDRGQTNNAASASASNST

Columns and labels:
[1] = molecular target: Ubiquitin-conjugating enzyme E2 N (UBE2N) (human (in lysates of the paper's human cell lines; line not stated)) (UniProt P61088); test: co-IP; whole lysates in IP buffer, pre-cleaned with protein A/G-agarose; anti-UBE2N or anti-Axin1 antibody (control IgG) with protein A/G beads at 4 °C overnight; washed five times with IP lysis buffer; Western blot; cell line not stated
[2] = molecular target: Axin1 (human (in lysates of the paper's human cell lines; line not stated)) (UniProt O15169); test: as above

Row | Substance | binding [1] | binding [2]
1 | Axin1 (from UniProt O15169 1-862) | binds | 
2 | GSK-3β (from UniProt P49841 1-420) (enzyme) | no binding | 
3 | Ubiquitin-conjugating enzyme E2 N (UBE2N) (from UniProt P61088 1-152) |  | binds
